From the supplement of paper PMC4635364
Structures can show the parent of a compound that is named as a salt. This is one part of the list. Repeats in this data set agree poorly, so a single value says little.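 ReNCell VM, a human fetal ventral-midbrain neural progenitor line, was differentiated without mitogens. Blinded raters scored images stained for doublecortin (early neurons) or tyrosine hydroxylase (dopaminergic neurons) against untreated wells (0 = no change). Scores were averaged across repeats and both raters, and compounds averaging 2 or more were selected as hits for retesting.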

test system: ReNCell VM; test: dopaminergic neuron differentiation score (TH+ cell fraction vs untreated, manual image score) (score (0 to 3)); higher = more TH+ dopaminergic neuron differentiation; conditions: library: Spectrum; 2 uM; 4 weeks; BDNF 10 ng/ml + GDNF 10 ng/ml

Dopaminergic neuron differentiation score, inactive:
CN(C)CCCN1c2ccccc2Sc2ccc(C(F)(F)F)cc21 0
N[C@@H](C(=O)O)[C@@H](O)[C@H](O)[C@H](O)CO 0
Cc1ccc(NC(=O)c2ccc(CN3CCN(C)CC3)cc2)cc1Nc1nccc(-c2cccnc2)n1 0
CC(C)(Oc1ccc(C2CC2(Cl)Cl)cc1)C(=O)O (stereo unspecified) 0
C[C@]12C=CC(=O)C=C1CC[C@@H]1[C@@H]2[C@@H](O)C[C@@]2(C)[C@H]1CC[C@]2(O)C(=O)CO 0
CCCCNC(=O)NS(=O)(=O)c1ccc(C)cc1 0
COc1c(-c2coc3cc4c(cc3c2=O)CC(OC(C)=O)C(C)(C)O4)ccc2c1C=CC(C)(C)O2 (stereo unspecified) 0
CC(C)(CO)[C@@H](O)C(=O)NCCC(=O)O [PANTOTHENIC ACID(d) Na salt] 0
O=c1ccc2ccccc2o1 0
C[C@@H]1O[C@@H]1P(=O)(O)O 0
CC(C)(S)[C@@H](N)C(=O)O 1
CCOC(=O)n1ccn(C)c1=S 0
CCCCC(=O)O[C@]1(C(=O)CO)CC[C@H]2[C@@H]3CCC4=CC(=O)CC[C@]4(C)[C@H]3[C@@H](O)C[C@@]21C 0
O=c1cc(-c2ccc(O)cc2)oc2ccc(O)cc12 0
CC(C)(c1ccc(O)cc1)c1ccc(O)cc1 0
COC(=O)[C@@H]1OC(=O)C2OC23[C@@]1(C)CCC1[C@@]2(C)CCC(=O)C(C)(C)C2C[C@@H](OC(C)=O)[C@]13C (stereo partly specified) 0

Fetched by compound from the list above, 2 records:
Dopaminergic neuron differentiation score, inactive:
O=c1ccc2ccccc2o1 0
CCCCNC(=O)NS(=O)(=O)c1ccc(C)cc1 0
